Experimental data as given in PMC9470594.

The chains behind the UniProt entries cited, without tags or fusion partners.
UniProt A0A804M0V9, entry or part of it: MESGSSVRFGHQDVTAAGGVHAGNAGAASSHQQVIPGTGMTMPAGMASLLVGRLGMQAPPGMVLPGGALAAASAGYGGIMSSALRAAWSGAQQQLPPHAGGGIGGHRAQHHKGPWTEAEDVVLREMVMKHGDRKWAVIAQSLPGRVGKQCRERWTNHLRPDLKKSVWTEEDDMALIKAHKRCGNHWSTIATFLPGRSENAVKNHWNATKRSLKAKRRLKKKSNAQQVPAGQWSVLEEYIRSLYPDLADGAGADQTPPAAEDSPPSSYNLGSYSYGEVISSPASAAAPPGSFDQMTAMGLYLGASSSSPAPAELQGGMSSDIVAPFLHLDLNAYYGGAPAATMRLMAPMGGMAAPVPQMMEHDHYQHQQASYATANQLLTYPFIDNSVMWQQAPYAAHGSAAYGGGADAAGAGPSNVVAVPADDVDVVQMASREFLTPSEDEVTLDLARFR

Target: DED1 (R2R3-MYB), GST fusion (Zea mays) (UniProt A0A804M0V9)
Assay: competition with a labelled probe
Conditions: 5 mM Mg2+, EMSA: 50 ng DED1-GST, 6 ng probe in 20 uL 10 mM Tris pH 7.5, 50 mM KCl, 1 mM DTT, 2.5% glycerol, 5 mM MgCl2, 0.05% NP-40, 25 C, 20 min, recombinant protein, protein details: GST (N-terminal, pGEX-4T-1)

| Sequence | binding result (100-fold unlabelled competitor vs fl3 probe) | binding result (100-fold unlabelled competitor vs sus1 probe) |
| --- | --- | --- |
| TGTACAAATATTTCTACTGAAGACCTTTAAGAAACCACCTGTGGA (double strand) [fl3 mutant competitor] | binds more weakly | – |
| CTGAACCGTTTTTCGGTTTAGACCTTCTCTGCTGACTGAAGCTTC (double strand) [sus1 mutant competitor] | – | binds more weakly |

Construct, isoform or probe ends are uncertain for at least one entry. Weaker means in comparison with the reference protein, sequence or condition of that experiment.
